From patent US20050191294A1, “Compositions and methods of use of targeting peptides for diagnosis and therapy” (Board of Regents, The University of Texas System, priority 2003, published 2005)
No constants are given. Whether binding was seen depends on the method and setting. Some entries that bind do so weakly or less than the wild type. For some assays here: Where a sequence is shown, tags or fusion partners need not be part of it.

Tests used:
[1] = target: T1, recombinant mouse IL-11Rα (R&D Systems) (mouse) (UniProt Q64385); assay: phage binding to immobilized recombinant IL-11Rα
T1 sequence (looked up): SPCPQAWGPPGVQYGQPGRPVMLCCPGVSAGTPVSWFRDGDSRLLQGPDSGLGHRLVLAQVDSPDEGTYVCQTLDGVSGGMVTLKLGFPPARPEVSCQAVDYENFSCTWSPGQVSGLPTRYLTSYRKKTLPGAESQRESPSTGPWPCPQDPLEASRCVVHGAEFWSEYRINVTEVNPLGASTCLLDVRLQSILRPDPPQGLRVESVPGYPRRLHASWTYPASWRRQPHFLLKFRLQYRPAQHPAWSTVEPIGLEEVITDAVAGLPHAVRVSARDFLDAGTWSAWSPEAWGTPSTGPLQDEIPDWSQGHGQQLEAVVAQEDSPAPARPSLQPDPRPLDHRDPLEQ

[2] = target: T2, prohibitin from mouse white fat membrane extract (35 kDa protein) (mouse) (UniProt P67778); assay: affinity chromatography of biotinylated mouse white fat membrane extract, blot for biotin
T2 sequence (looked up): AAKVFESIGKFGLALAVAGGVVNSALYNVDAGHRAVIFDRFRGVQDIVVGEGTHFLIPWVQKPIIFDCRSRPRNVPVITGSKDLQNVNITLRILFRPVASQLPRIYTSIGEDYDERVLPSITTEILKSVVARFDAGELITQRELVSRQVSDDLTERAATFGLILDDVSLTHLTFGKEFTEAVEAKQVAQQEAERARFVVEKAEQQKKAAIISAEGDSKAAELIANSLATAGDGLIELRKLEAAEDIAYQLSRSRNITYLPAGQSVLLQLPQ

Binder	binding [1]	binding [2]
CGRRAGGSC (peptide, not shown: large carriers) [… (SEQ ID NO:1)-displaying phage]	binds	
CKGGRAKDC (peptide, not shown: a dimerising Fc or GST) [recombinant fusion protein … (SEQ ID NO:4)-glutathione transferase (gst)]		binds
